Test results reported in PubChem BioAssay AID330 (DTP/NCI, 2004).
The list does not hold the whole screen: its compounds were picked by chemical class. Not every dose and run of a compound is shown. T/C: endpoint of the treated group in % of that of the vehicle group. Some entries give survivors of the animals treated and no T/C: the source holds a T/C of zero for them, seemingly a mark for toxic or unscored doses. Survivors were counted at the toxicity check, usually on the fifth day, unless a day is given; later deaths do not show. Schedule codes are those of the source, read here as Q, the interval in days (D) or hours (H), X, the number of doses. Where survival is the endpoint, this PubChem deposit counts one and a half times the control or more as active, and values a quarter to a half above the control carry no call in these data; other NCI protocols may use other cut-offs. Some T/C values are followed by the survivors on the day toxicity was checked, most often the fifth; where neither a count nor a note follows, no animal had died by that day. Some doses were run more than once; their values stand side by side, smallest first. Some entries show no survivor count and are marked so; the dose need not have been tolerated. Some complexes appear as separate parts, the way the source draws them; their charges need not add up.

Tested on: P388 leukemia ip, CD2F1 mice, survival T/C
Test: NCI In Vivo Anticancer Drug Screen. Data for tumor model P388 Leukemia (intraperitoneal) in CD2F1 (CDF1) mice
Conditions: T/C endpoint: median survival time, higher T/C = longer survival
[1] = dose: 50.0 mg/kg/injection, schedule: Q04DX003 (ip), vehicle: Klucel (hydroxypropylcellulose) (HPC)
[2] = dose: 100.0 mg/kg/injection, schedule: Q04DX003 (ip), vehicle: Klucel (hydroxypropylcellulose) (HPC)
[3] = dose: 200.0 mg/kg/injection, schedule: Q04DX003 (ip), vehicle: Klucel (hydroxypropylcellulose) (HPC)
[4] = dose: 400.0 mg/kg/injection, schedule: Q04DX003 (ip), vehicle: Klucel (hydroxypropylcellulose) (HPC)
[5] = dose: 100.0 mg/kg/injection, schedule: Q01DX009 (ip), vehicle: saline with Tween-80
[6] = dose: 200.0 mg/kg/injection, schedule: Q01DX009 (ip), vehicle: saline with Tween-80
[7] = dose: 50.0 mg/kg/injection, schedule: Q01DX009 (ip), vehicle: saline
[8] = dose: 100.0 mg/kg/injection, schedule: Q01DX009 (ip), vehicle: saline
[9] = dose: 200.0 mg/kg/injection, schedule: Q01DX009 (ip), vehicle: saline
[10] = dose: 400.0 mg/kg/injection, schedule: Q01DX009 (ip), vehicle: saline
[11] = dose: 50.0 mg/kg/injection, schedule: Q01DX005 (ip), vehicle: Klucel (hydroxypropylcellulose) (HPC)
[12] = dose: 100.0 mg/kg/injection, schedule: Q01DX005 (ip), vehicle: Klucel (hydroxypropylcellulose) (HPC)
[13] = dose: 200.0 mg/kg/injection, schedule: Q01DX005 (ip), vehicle: Klucel (hydroxypropylcellulose) (HPC)

Question: For `CC(=O)OCC#CC[N+]1([O-])CCC(C)CC1` (configuration not stated), which T/C (dose: 25.0 mg/kg/injection, schedule: Q04DX002 (ip), vehicle: saline) is on record?
Answer: 107 % of control

Question: What about the T/C (dose: 50.0 mg/kg/injection, schedule: Q04DX002 (ip), vehicle: saline) of the same compound?
Answer: 100 % of control

Question: What about the T/C (dose: 100.0 mg/kg/injection, schedule: Q04DX002 (ip), vehicle: saline) of the same compound?
Answer: 98 [5 of 6 alive] and 112 % of control

Question: And the survivor count (dose: 200.0 mg/kg/injection, schedule: Q04DX002 (ip), vehicle: saline)?
Answer: 0 of 6

Question: What about the survivor count (dose: 400.0 mg/kg/injection, schedule: Q04DX002 (ip), vehicle: saline) of the same compound?
Answer: 1 of 6

Question: With `F[As-](F)(F)(F)(F)F.c1ccc([As+](c2ccccc2)(c2ccccc2)c2ccccc2)cc1` as the compound, how does the T/C (dose: 12.5 mg/kg/injection, schedule: Q01DX009 (ip), vehicle: Klucel (hydroxypropylcellulose) (HPC)) read?
Answer: 130 % of control

Question: What about the T/C (dose: 25.0 mg/kg/injection, schedule: Q01DX009 (ip), vehicle: Klucel (hydroxypropylcellulose) (HPC)) of the same compound?
Answer: 135 and 140 % of control

Question: And the T/C (dose: 50.0 mg/kg/injection, schedule: Q01DX009 (ip), vehicle: Klucel (hydroxypropylcellulose) (HPC))?
Answer: 142 and 150 % of control

Question: What about the T/C [1] of the same compound?
Answer: 114 and 124 % of control

Question: And the T/C (dose: 100.0 mg/kg/injection, schedule: Q01DX009 (ip), vehicle: Klucel (hydroxypropylcellulose) (HPC))?
Answer: 145 [5 of 6 alive] and 159 % of control

Question: And the T/C [2]?
Answer: 118 and 141 % of control

Question: And the T/C (dose: 200.0 mg/kg/injection, schedule: Q01DX009 (ip), vehicle: Klucel (hydroxypropylcellulose) (HPC))?
Answer: 155 % of control

Question: And the T/C [3]?
Answer: 138 and 141 % of control

Question: What about the T/C [4] of the same compound?
Answer: 129 and 150 % of control

Question: With `COP(C)(=O)O.[Y]` as the compound, how does the T/C (dose: 25.0 mg/kg/injection, schedule: Q01DX001 (ip), vehicle: saline with Tween-80) read?
Answer: 102 % of control [survivor count not shown]

Question: What about the T/C (dose: 50.0 mg/kg/injection, schedule: Q01DX001 (ip), vehicle: saline with Tween-80) of the same compound?
Answer: 94 % of control [survivor count not shown]

Question: And the T/C (dose: 100.0 mg/kg/injection, schedule: Q01DX001 (ip), vehicle: saline with Tween-80)?
Answer: 100 % of control [survivor count not shown]

Question: And the T/C (dose: 200.0 mg/kg/injection, schedule: Q01DX001 (ip), vehicle: saline with Tween-80)?
Answer: 92 % of control [survivor count not shown]

Question: And the T/C (dose: 400.0 mg/kg/injection, schedule: Q01DX001 (ip), vehicle: saline with Tween-80)?
Answer: 100 % of control [survivor count not shown]

Question: `COP(C)(=O)OC.COP(C)(=O)OC.COP(C)(=O)OC.COP(C)(=O)OC.COP(C)(=O)OC.COP(C)(=O)OC.[Cr+3].[O-][Cl+3]([O-])([O-])O` was tested. Which T/C (dose: 50.0 mg/kg/injection, schedule: Q01DX009 (ip), vehicle: saline with Tween-80) did it give?
Answer: 106 % of control [survivor count not shown]

Question: What about the T/C [5] of the same compound?
Answer: 108 % of control [survivor count not shown]

Question: What about the T/C [6] of the same compound?
Answer: 115 % of control [survivor count not shown]

Question: For `CC12CCC(/C(=C/N(CCCl)CCCl)C1=O)C(C)(C)O2` (configuration not stated), which T/C [2] is on record?
Answer: 106 % of control

Question: And the T/C [3]?
Answer: 103 % of control

Question: What about the T/C [4] of the same compound?
Answer: 113 % of control [5 of 6 alive]

Question: `ClC(Cl)C1SCCCS1` was tested. Which T/C [7] did it give?
Answer: 92 % of control [5 of 6 alive]

Question: And the T/C [8]?
Answer: 87 % of control

Question: What about the T/C [9] of the same compound?
Answer: 97 % of control

Question: Which T/C (dose: 12.5 mg/kg/injection, schedule: Q01DX009 (ip), vehicle: saline) does the source give for `CN(C)C(=O)Oc1ccc[nH]c1=O` here?
Answer: 94, 95, 110 % of control

Question: And the T/C (dose: 25.0 mg/kg/injection, schedule: Q01DX009 (ip), vehicle: saline)?
Answer: 100, 106, 108 % of control

Question: What about the T/C [7] of the same compound?
Answer: 87, 93, 100 % of control

Question: What about the T/C [8] of the same compound?
Answer: 100, 103, 107 % of control

Question: And the T/C [9]?
Answer: 103, 107, 110 % of control

Question: And the T/C [10]?
Answer: 101 and 120 % of control

Question: And the survivor count [10]?
Answer: 1 of 6

Question: How did the T/C (dose: 37.5 mg/kg/injection, schedule: Q01DX009 (ip), vehicle: water) turn out when `CCC(O)(C(=O)OCC1=CC[N+]2([O-])CCC(O)C12)c1ccccc1` (configuration not stated) was run?
Answer: 146 % of control

Question: What about the T/C (dose: 75.0 mg/kg/injection, schedule: Q01DX009 (ip), vehicle: water) of the same compound?
Answer: 149 % of control

Question: What about the T/C (dose: 150.0 mg/kg/injection, schedule: Q01DX009 (ip), vehicle: water) of the same compound?
Answer: 157 % of control

Question: And the T/C (dose: 300.0 mg/kg/injection, schedule: Q01DX009 (ip), vehicle: water)?
Answer: 166 % of control

Question: How did the T/C (dose: 12.5 mg/kg/injection, schedule: Q04DX002 (ip), vehicle: Klucel (hydroxypropylcellulose) (HPC)) turn out when `CC(=O)OCC#CC[N+]1([O-])CCCCC1.O=[N+]([O-])c1cc([N+](=O)[O-])c(O)c([N+](=O)[O-])c1` was run?
Answer: 101 % of control

Question: What about the T/C (dose: 25.0 mg/kg/injection, schedule: Q04DX002 (ip), vehicle: Klucel (hydroxypropylcellulose) (HPC)) of the same compound?
Answer: 101 % of control

Question: What about the T/C (dose: 50.0 mg/kg/injection, schedule: Q04DX002 (ip), vehicle: Klucel (hydroxypropylcellulose) (HPC)) of the same compound?
Answer: 105 % of control

Question: And the survivor count (dose: 100.0 mg/kg/injection, schedule: Q04DX002 (ip), vehicle: Klucel (hydroxypropylcellulose) (HPC))?
Answer: 2 of 6

Question: What about the survivor count (dose: 200.0 mg/kg/injection, schedule: Q04DX002 (ip), vehicle: Klucel (hydroxypropylcellulose) (HPC)) of the same compound?
Answer: 0 of 6

Question: And the survivor count (dose: 400.0 mg/kg/injection, schedule: Q04DX002 (ip), vehicle: Klucel (hydroxypropylcellulose) (HPC))?
Answer: 0 of 6

Question: With `CC(C)OC(=O)N1N=C(OC(C)C)OP12=NC(c1ccccc1)=NN2C` (configuration not stated) as the compound, how does the T/C [11] read?
Answer: 102 % of control

Question: What about the T/C [12] of the same compound?
Answer: 102 % of control

Question: And the T/C [13]?
Answer: 102 % of control

Question: What does the source list for `CC1(C)CN1P(=O)(Nc1ccccn1)N1CC1(C)C` (configuration not stated)?
Answer: T/C (dose: 6.5 mg/kg/injection, schedule: Q01DX009 (ip), vehicle: saline with Tween-80): 100 % of control; T/C (dose: 13.0 mg/kg/injection, schedule: Q01DX009 (ip), vehicle: saline with Tween-80): 103 % of control; T/C (dose: 26.0 mg/kg/injection, schedule: Q01DX009 (ip), vehicle: saline with Tween-80): 103 % of control; T/C (dose: 44.0 mg/kg/injection, schedule: Q01DX009 (ip), vehicle: saline with Tween-80): 118 % of control; T/C (dose: 66.0 mg/kg/injection, schedule: Q01DX009 (ip), vehicle: saline with Tween-80): 127 % of control; T/C (dose: 88.0 mg/kg/injection, schedule: Q01DX009 (ip), vehicle: saline with Tween-80): 145 % of control; T/C [5]: 145 % of control [5 of 6 alive]; T/C (dose: 132.0 mg/kg/injection, schedule: Q01DX009 (ip), vehicle: saline with Tween-80): 153 % of control; T/C (dose: 150.0 mg/kg/injection, schedule: Q01DX009 (ip), vehicle: saline with Tween-80): 145 % of control [5 of 6 alive]; T/C [6]: 205 % of control; survivor count (dose: 300.0 mg/kg/injection, schedule: Q01DX009 (ip), vehicle: saline with Tween-80): 3 of 6

Question: How did the T/C (dose: 25.0 mg/kg/injection, schedule: Q04DX003 (ip), vehicle: Klucel (hydroxypropylcellulose) (HPC)) turn out when `N/C(N=C1N=NN=N1)=N\[N+](=O)[O-]` was run?
Answer: 103 % of control [survivor count not shown]

Question: What about the T/C [1] of the same compound?
Answer: 100 % of control [survivor count not shown]

Question: And the T/C [2]?
Answer: 97 [survivor count not shown] and 103 % of control [survivor count not shown]

Question: How did the T/C [8] turn out when `O=[N+]([O-])C(F)(COCOCC(F)([N+](=O)[O-])[N+](=O)[O-])[N+](=O)[O-]` was run?
Answer: 106 % of control

Question: And the T/C [9]?
Answer: 111 % of control

Question: What about the T/C [10] of the same compound?
Answer: 116 % of control

Question: With `CC1CCCN(C)C1.O=[N+]([O-])c1cc([N+](=O)[O-])c(O)c([N+](=O)[O-])c1` as the compound, how does the T/C (dose: 25.0 mg/kg/injection, schedule: Q01DX005 (ip), vehicle: Klucel (hydroxypropylcellulose) (HPC)) read?
Answer: 99 % of control

Question: What about the T/C [11] of the same compound?
Answer: 107 % of control

Question: What about the T/C [12] of the same compound?
Answer: 101 % of control [5 of 6 alive]

Question: And the survivor count [13]?
Answer: 0 of 6

Question: Which results are given for `CC(COCOCC(C)([N+](=O)[O-])[N+](=O)[O-])([N+](=O)[O-])[N+](=O)[O-]`?
Answer: T/C (dose: 100.0 mg/kg/injection, schedule: Q04DX003 (ip), vehicle: saline): 97 % of control; T/C (dose: 200.0 mg/kg/injection, schedule: Q04DX003 (ip), vehicle: saline): 97 % of control; T/C (dose: 400.0 mg/kg/injection, schedule: Q04DX003 (ip), vehicle: saline): 98 % of control
